Measurements taken from paper PMC8344019.
These are yes or no findings as the source states them, for the method shown. In cells and extracts the contact can be indirect. Some binding calls cover weakened binding; strength is not graded here.

Sequences of proteins named here, by UniProt entry; tags and fusion partners are left off.
UniProt P17182: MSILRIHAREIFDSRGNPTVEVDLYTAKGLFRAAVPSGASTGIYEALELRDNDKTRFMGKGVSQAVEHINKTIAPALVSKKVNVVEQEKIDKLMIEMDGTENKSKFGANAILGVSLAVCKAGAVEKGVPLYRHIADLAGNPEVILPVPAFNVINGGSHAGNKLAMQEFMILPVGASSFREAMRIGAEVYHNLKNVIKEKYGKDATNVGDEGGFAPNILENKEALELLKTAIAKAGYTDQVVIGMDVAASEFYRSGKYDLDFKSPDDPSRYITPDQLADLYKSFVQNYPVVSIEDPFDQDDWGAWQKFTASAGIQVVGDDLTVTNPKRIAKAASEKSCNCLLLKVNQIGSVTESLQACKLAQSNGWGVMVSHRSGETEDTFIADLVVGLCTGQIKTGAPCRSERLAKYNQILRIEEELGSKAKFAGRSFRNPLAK

Target: enolase 1 (Eno1) (mouse (endogenous in EO771)) (UniProt P17182)
Assay: co-IP; EO771 protein extracts (RIPA lysis buffer) precleared with protein A agarose beads and rabbit IgG, immunoprecipitated overnight with beads conjugated with anti-Eno1 antibodies; Western blot with anti-CD44 and anti-Eno1

B1: CD44, a transmembrane adhesion receptor (receptor, UniProt P15379 23-778)
chain: QIDLNVTCRYAGVFHVEKNGRYSISRTEAADLCQAFNSTLPTMDQMKLALSKGFETCRYGFIEGNVVIPRIHPNAICAANHTGVYILVTSNTSHYDTYCFNASAPPEEDCTSVTDLPNSFDGPVTITIVNRDGTRYSKKGEYRTHQEDIDASNIIDDDVSSGSTIEKSTPEGYILHTYLPTEQPTGDQDDSFFIRSTLATIASTVHSKSHAAAQKQNNWIWSWFGNSQSTTQTQEPTTSATTALMTTPETPPKRQEAQNWFSWLFQPSESKSHLHTTTKMPGTESNTNPTGWEPNEENEDETDTYPSFSGSGIDDDEDFISSTIATTPRVSARTEDNQDWTQWKPNHSNPEVLLQTTTRMADIDRISTSAHGENWTPEPQPPFNNHEYQDEEETPHATSTTPNSTAEAAATQQETWFQNGWQGKNPPTPSEDSHVTEGTTASAHNNHPSQRITTQSQEDVSWTDFFDPISHPMGQGHQTESKDTDSSHSTTLQPTAAPNTHLVEDLNRTGPLSVTTPQSHSQNFSTLHGEPEEDENYPTTSILPSSTKSSAKDARRGGSLPTDTTTSVEGYTFQYPDTMENGTLFPVTPAKTEVFGETEVTLATDSNVNVDGSLPGDRDSSKDSRGSSRTVTHGSELAGHSSANQDSGVTTTSGPMRRPQIPEWLIILASLLALALILAVCIAVNSRRRCGQKKKLVINGGNGTVEDRKPSELNGEASKSQEMVHLVNKEPSETPDQCMTADETRNLQSVDMKIGV
  binding: binds
